Earlier results, collected in patent US20040266843A1, “Sulfonamide substituted indolinones as inhibitors of DNA dependent protein kinase (DNA-PK)” (Sugen, Inc., priority 2003, published 2004).
At least one compound was matched to its structure with a doubt left.

System: p 110, a phoshatidylinositol-3-kinase
Settings: cited from earlier work

SMILES: COC[C@H]1OC(=O)c2coc3c2[C@@]1(C)C1=C(C3=O)[C@@H]2CCC(=O)[C@@]2(C)C[C@H]1OC(C)=O [wortmannin]
- fold higher activity against p110 than DNA-PK: 100 fold
